Laboratory results from paper PMC7913925, “Design and Evaluation of a Polypeptide That Mimics the Integrin Binding Site for EDA Fibronectin to Block Profibrotic Cell Activity” (International Journal of Molecular Sciences, 2021).
No constants are given. Whether binding was seen depends on the method and setting. For part of these data: Binding seen in cells or lysates may run through a third protein. Some binding calls cover weakened binding; strength is not graded here. Blank lines part the entries; values can stand above or below the binder they belong to.

Amino acid sequences for entries named in this document (tags omitted). Residues count along the entry.
UniProt P11276, residues 33-2477: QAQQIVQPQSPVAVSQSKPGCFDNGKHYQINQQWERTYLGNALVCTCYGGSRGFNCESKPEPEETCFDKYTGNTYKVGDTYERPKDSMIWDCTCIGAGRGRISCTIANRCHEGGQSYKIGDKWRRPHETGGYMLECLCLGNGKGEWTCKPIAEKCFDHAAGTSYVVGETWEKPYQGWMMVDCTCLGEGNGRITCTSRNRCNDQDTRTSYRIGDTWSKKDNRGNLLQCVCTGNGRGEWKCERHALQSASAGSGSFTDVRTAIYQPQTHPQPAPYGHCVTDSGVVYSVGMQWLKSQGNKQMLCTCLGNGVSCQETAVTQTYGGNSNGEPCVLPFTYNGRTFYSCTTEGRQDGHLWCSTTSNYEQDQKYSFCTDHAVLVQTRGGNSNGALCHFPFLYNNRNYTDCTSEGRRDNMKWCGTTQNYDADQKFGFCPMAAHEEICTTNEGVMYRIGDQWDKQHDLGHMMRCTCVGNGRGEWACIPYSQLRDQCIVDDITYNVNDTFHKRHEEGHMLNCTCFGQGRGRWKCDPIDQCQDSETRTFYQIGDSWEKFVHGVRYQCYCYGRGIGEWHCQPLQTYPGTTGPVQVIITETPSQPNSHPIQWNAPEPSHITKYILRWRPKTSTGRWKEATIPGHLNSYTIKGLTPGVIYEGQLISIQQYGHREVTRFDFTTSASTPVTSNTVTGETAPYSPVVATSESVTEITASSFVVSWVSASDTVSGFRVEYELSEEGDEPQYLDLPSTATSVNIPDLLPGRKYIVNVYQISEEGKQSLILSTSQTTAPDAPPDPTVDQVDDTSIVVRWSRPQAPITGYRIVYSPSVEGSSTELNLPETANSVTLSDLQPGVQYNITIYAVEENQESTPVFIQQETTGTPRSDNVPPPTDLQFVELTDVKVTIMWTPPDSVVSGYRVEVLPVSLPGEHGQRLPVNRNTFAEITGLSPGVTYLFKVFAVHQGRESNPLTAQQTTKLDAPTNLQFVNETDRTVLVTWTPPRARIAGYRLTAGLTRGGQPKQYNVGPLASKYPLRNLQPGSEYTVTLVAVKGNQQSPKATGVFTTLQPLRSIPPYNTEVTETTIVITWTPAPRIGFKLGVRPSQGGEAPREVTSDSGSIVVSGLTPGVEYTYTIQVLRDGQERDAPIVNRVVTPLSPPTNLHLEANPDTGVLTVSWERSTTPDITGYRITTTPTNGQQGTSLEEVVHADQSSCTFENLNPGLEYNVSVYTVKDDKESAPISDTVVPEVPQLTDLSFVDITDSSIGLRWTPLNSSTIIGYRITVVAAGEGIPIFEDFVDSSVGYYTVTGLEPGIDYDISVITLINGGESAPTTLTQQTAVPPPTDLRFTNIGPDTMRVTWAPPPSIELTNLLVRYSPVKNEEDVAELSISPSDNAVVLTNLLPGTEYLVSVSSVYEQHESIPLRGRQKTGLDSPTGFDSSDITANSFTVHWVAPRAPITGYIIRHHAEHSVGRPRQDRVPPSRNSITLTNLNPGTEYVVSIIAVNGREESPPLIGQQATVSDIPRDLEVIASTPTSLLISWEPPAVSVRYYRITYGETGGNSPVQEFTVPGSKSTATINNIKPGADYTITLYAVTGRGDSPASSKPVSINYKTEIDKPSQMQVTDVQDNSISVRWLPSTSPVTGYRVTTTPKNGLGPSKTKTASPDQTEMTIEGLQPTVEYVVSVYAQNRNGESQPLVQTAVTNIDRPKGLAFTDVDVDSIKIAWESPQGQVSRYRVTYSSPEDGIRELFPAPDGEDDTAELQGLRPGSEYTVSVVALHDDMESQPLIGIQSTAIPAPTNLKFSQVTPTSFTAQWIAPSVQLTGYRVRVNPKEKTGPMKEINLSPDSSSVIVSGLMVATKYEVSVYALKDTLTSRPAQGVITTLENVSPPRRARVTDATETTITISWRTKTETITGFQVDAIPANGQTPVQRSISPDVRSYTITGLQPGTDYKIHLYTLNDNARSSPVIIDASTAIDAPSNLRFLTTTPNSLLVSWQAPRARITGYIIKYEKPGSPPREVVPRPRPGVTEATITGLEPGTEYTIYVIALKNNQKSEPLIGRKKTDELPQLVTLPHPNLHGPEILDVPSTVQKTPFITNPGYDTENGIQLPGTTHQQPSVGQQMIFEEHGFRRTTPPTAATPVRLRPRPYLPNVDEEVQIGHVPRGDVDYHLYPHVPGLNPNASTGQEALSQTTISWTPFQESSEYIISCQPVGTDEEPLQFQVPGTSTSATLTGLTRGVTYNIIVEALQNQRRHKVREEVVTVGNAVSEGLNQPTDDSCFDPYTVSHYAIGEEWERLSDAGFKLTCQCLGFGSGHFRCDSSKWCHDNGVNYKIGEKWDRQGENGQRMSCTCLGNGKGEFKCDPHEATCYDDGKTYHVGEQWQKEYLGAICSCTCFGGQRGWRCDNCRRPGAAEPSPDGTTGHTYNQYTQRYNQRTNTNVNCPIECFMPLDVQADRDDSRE

Legend:
[1] = biological target: extra domain A containing fibronectin (EDA-FN) (not stated (endogenous in fibroblasts; mouse NIH/3T3 and human HFL1 cells were cultured)) (UniProt P11276); test: co-IP; as a2; synthetic AF38Pep added to the cells for 48 h (with TGF-β1) before lysis and anti-ITGA4 immunoprecipitation; read-out is the EDA-FN coeluted with ITGA4; only the binder purified
[2] = biological target: T1, antifibrotic 38-amino-acid polypeptide (AF38Pep) (disulfide bridge between the two cysteines); test: condition: 300 µM FN-RGD injected into 15 µM AF38Pep; ITC; 15 µM AF38Pep in the chamber well, 300 µM small peptide in the injection needle; 25 °C; HEPES buffered saline (140 mM NaCl, 1.5 mM Na2HPO4, 50 mM HEPES; pH 7); MicroCal iTC200; one set of sites model with number of binding sites assumed to be 1; both purified
T1 construct: two stretches derived from integrins β1 and α4, linked by a serine; Design contains the ISTTPAK motif of integrin β1/β7 and the KNENKI motif of integrin α4; source: synthetic peptide (ChinaPeptides)
T1 peptide: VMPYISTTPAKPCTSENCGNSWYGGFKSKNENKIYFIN

[3] = biological target: T1, antifibrotic 38-amino-acid polypeptide …; test: condition: 300 µM COL-RGD injected into 15 µM AF38Pep; ITC; 15 µM AF38Pep in the chamber well, 300 µM small peptide in the injection needle; 25 °C; HEPES buffered saline (140 mM NaCl, 1.5 mM Na2HPO4, 50 mM HEPES; pH 7); MicroCal iTC200; one set of sites model with number of binding sites assumed to be 1; both purified

- binding [1]: binds
Binder: VMPYISTTPAKPCTSENCGNSWYGGFKSKNENKIYFIN (designed binder, disulfide bridge between the two cysteines) [antifibrotic 38-amino-acid polypeptide (AF38Pep)]

- binding [2]: no binding
Binder: YAVTGRGDSPAS [FN-RGD, a peptide derived from the integrin β1 and β3 subunit-binding RGD motif of fibronectin]

- binding [3]: no binding
Binder: GPKGDRGDAGPK [COL-RGD, a peptide derived from the integrin β1 subunit-binding RGD motif of collagen I]
